Data as given in PubChem BioAssay AID652243 (Drosophila RNAi Screening Center, 2013).
In all, the deposit lists about 24,000 reagents; this is a random part of those with a known target gene and a result. In the full data, 246 (1%) are marked active. 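Plates not normalised; calls are printed but the firefly/Renilla ratio behind them is not deposited; fold cut for lowering reported inconsistently.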 Raw values are not corrected between plates. Names joined by + are all predicted targets of the reagent. The record does not give: the amount of reagent.

Purpose: 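Fly genes required for human androgen receptor driven transcription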 (primary screen)
Cell system: Drosophila S2R+ cells
Knock-down reagent: long dsRNA against Drosophila genes
Time to read-out: 72 h (48 h, then 24 h hormone)
Conditions: synthetic androgen R1881 at 10 nM for 24 h
Detection: 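Firefly light from an androgen-responsive reporter and Renilla control light per well, raw and unnormalised, for each of two replicates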
Reading the numbers: firefly reporter light: higher = more light from androgen-responsive reporter; Renilla control light: higher = more constitutive control signal (cell number, transfection)
Active means: 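Hit when the log firefly-to-Renilla ratio dropped or increased by a fixed fold versus the mean of GFP or LacZ controls across duplicate plates; lowering cut given as 1.5 and as 3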
Meaning of the calls: active = hit: reporter lowered or raised; inactive = no hit

predicted target | dsRNA | firefly reporter light, replicate 1 | firefly reporter light, replicate 2 | Renilla control light, replicate 1 | Renilla control light, replicate 2 | call
CR18217 (pseudo) | DRSC21506 | 7.98e5 | 5.43e5 | 2.72e6 | 1.98e6 | inactive
fand (fandango) | DRSC06967 | 9.63e5 | 1.01e6 | 2.02e6 | 2.74e6 | inactive
fand (fandango) | DRSC27505 | 1.89e5 | 2.11e5 | 3.78e5 | 8.94e5 | inactive
fand (fandango) | DRSC39027 | 6.81e5 | 7.41e5 | 1.64e6 | 1.61e6 | inactive
CG10898 | DRSC14279 | 47831 | 55254 | 3.13e5 | 4.56e5 | inactive
CG5421 | DRSC02858 | 1.59e5 | 2.22e5 | 1.10e6 | 1.35e6 | inactive
CG5421 | DRSC24636 | 9.54e5 | 1.19e6 | 1.01e6 | 9.60e5 | inactive
CG12159 | DRSC06114 | 1.54e5 | 2.27e5 | 1.73e6 | 1.48e6 | inactive
vas (retired record) | DRSC22007 | 7.93e5 | 6.74e5 | 1.12e6 | 1.29e6 | inactive
vas (retired record) | DRSC37764 | 1.07e6 | 9.41e5 | 1.88e6 | 1.28e6 | inactive
lok (loki) | DRSC03567 | 7.95e5 | 7.21e5 | 1.36e6 | 2.05e6 | inactive
lok (loki) | DRSC25866 | 2.56e5 | 4.16e5 | 5.61e5 | 7.29e5 | inactive
lok (loki) | DRSC36722 | – | – | – | – | inactive
CG9497 | DRSC03234 | 6.78e5 | 6.79e5 | 1.82e6 | 2.37e6 | inactive
CG9497 | DRSC25510 | 7.79e5 | 9.17e5 | 1.06e6 | 1.05e6 | inactive
Lsd-2 (Lipid storage droplet-2) | DRSC20143 | 88725 | 1.26e5 | 8.19e5 | 1.12e6 | inactive
Lsd-2 (Lipid storage droplet-2) | DRSC28901 | 4.66e5 | 3.50e5 | 1.24e6 | 8.45e5 | inactive
CG15711 | DRSC06582 | 96546 | 1.30e5 | 1.03e6 | 1.03e6 | inactive
Ype (Yippee) | DRSC20301 | 81481 | 1.23e5 | 7.54e5 | 8.60e5 | inactive
Cog7 (Component of oligomeric golgi complex 7) | DRSC16331 | 2.93e5 | 2.15e5 | 2.28e6 | 3.34e6 | inactive
CR41501 (pseudo) | DRSC38861 | 8.03e5 | 7.88e5 | 2.18e6 | 1.85e6 | inactive
Mnn1 (Menin 1) | DRSC03368 | 1.98e5 | 1.70e5 | 1.40e6 | 1.61e6 | inactive
CR40450 + CG32767 | DRSC18387 | 56453 | 75505 | 6.11e5 | 4.21e5 | inactive
gammaTub37C (gamma-Tubulin at 37C) | DRSC03535 | 9.08e5 | 9.29e5 | 1.29e6 | 1.20e6 | inactive
gammaTub37C (gamma-Tubulin at 37C) | DRSC25835 | 4.15e5 | 5.76e5 | 9.94e5 | 8.32e5 | inactive
Gr85a (Gustatory receptor 85a) | DRSC12760 | 68773 | 97051 | 2.57e5 | 1.31e5 | inactive
anne (anne boleyn) | DRSC17103 | 8.41e5 | 5.15e5 | 1.43e6 | 7.13e5 | inactive
anne (anne boleyn) | DRSC29952 | 4.37e5 | 3.52e5 | 1.18e6 | 1.11e6 | inactive
stc (shuttle craft) | DRSC03620 | 4.52e5 | 5.96e5 | 1.29e6 | 1.27e6 | inactive
CG13947 | DRSC00365 | 1.08e5 | 70471 | 9.47e5 | 7.62e5 | inactive
CG13947 | DRSC25465 | 7.12e5 | 9.08e5 | 1.27e6 | 1.07e6 | inactive
lgs (legless) | DRSC17152 | 1.05e5 | 1.48e5 | 4.92e5 | 5.38e5 | inactive
CG32833 | DRSC04596 | 1.35e6 | 2.61e5 | 1.90e6 | 5.81e5 | inactive
Gr39a (Gustatory receptor 39a) | DRSC01841 | 2.15e5 | 2.38e5 | 7.43e5 | 3.58e5 | inactive
Gr39a (Gustatory receptor 39a) | DRSC01842 | 1.58e5 | 1.16e5 | 4.63e5 | 4.08e5 | inactive
Gr39a (Gustatory receptor 39a) | DRSC27181 | 2.24e5 | 3.04e5 | 6.57e5 | 5.84e5 | inactive
CG14185 | DRSC10184 | 2.46e5 | 2.24e5 | 1.94e6 | 2.31e6 | inactive
stmA (stambha A) | DRSC07593 | 5.57e5 | 7.25e5 | 1.43e6 | 1.40e6 | inactive
stmA (stambha A) | DRSC22179 | 7.27e5 | 6.73e5 | 2.66e6 | 1.76e6 | inactive
CG9951 | DRSC11105 | 29888 | 27571 | 4.71e5 | 2.86e5 | inactive
CG9588 | DRSC16504 | 1.58e5 | 2.05e5 | 2.38e6 | 2.44e6 | inactive
CG42365 | DRSC04266 | 1.87e5 | 1.50e5 | 1.22e6 | 9.07e5 | inactive
CG9917 | DRSC20218 | 1.10e5 | 1.22e5 | 5.86e5 | 7.77e5 | inactive
CG32695 | DRSC17975 | 3.65e5 | 4.19e5 | 3.03e6 | 2.60e6 | inactive
Obp99d (Odorant-binding protein 99d) | DRSC15046 | 1.20e5 | 81251 | 1.18e6 | 2.09e6 | inactive
Obp83a (Odorant-binding protein 83a) | DRSC12362 | 59990 | 1.07e5 | 1.10e6 | 1.05e6 | inactive
CG42337 | DRSC11686 | 1.30e5 | 1.03e5 | 1.43e6 | 1.48e6 | inactive
CG42337 | DRSC23099 | 7.59e5 | 7.34e5 | 1.84e6 | 1.79e6 | inactive
CG42337 | DRSC27038 | 4.26e5 | 4.63e5 | 1.09e6 | 4.92e5 | inactive
stg (string) | DRSC17071 | 11103 | 6727 | 76732 | 65666 | inactive
stg (string) | DRSC27238 | 3.24e5 | 3.49e5 | 4.97e5 | 5.55e5 | inactive
stg (string) | DRSC37007 | 41878 | 38852 | 1.17e5 | 1.52e5 | active
Mlc-c (Myosin light chain cytoplasmic) | DRSC18683 | 1.01e5 | 75579 | 6.85e5 | 3.47e5 | inactive
Mlc-c (Myosin light chain cytoplasmic) | DRSC26543 | 2.64e5 | 2.36e5 | 7.06e5 | 4.28e5 | inactive
CG40498 | DRSC38568 | 1.12e6 | 6.94e5 | 2.15e6 | 1.01e6 | inactive
CG40498 | DRSC38860 | 1.29e6 | 9.55e5 | 2.56e6 | 1.75e6 | inactive
mab-21 | DRSC18791 | 2.78e5 | 3.01e5 | 3.03e6 | 3.08e6 | inactive
mab-21 | DRSC26005 | 5.06e5 | 4.66e5 | 9.00e5 | 8.33e5 | inactive

Records listed above marked active (1):
predicted target | dsRNA | firefly reporter light, replicate 1 | firefly reporter light, replicate 2 | Renilla control light, replicate 1 | Renilla control light, replicate 2 | call
stg (string) | DRSC37007 | 41878 | 38852 | 1.17e5 | 1.52e5 | active
